# PubChem BioAssay AID445 (National Center for Advancing Translational Sciences (NCATS), 2006)
# This is one part of the list. The main result of the screen is listed elsewhere. These columns were measured beside it and carry no call. Most of these compounds were active or inconclusive in the main read-out, so they are no random draw. Potencies come from curve fits of mixed quality, noted in brackets.
# Experiment: IkB Signaling
# Conditions: ABC-DLBCL IkBa-CBG/CBR dual luciferase ratio (green luciferase fused to IkBa over red control in OCI-Ly3 lymphoma cells), 4 h
# Outline: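 Curves were fitted separately to fusion (green), unfused (red) and ratio luminescence, then classed by r2, magnitude and activity. Cells: OCI-Ly3, 4 h compound plus doxycycline at 37C; 10 uM MG-132 defined full response.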
# [1] = measured here: control luc red channel unless noted
smiles,measurement,setting,value
COc1cc(OC)c(NC(=O)Nc2cccc(OCc3cc(=O)n4ccccc4n3)c2)cc1Cl,AC50,[1],"0.251 µM [falling, full curve]"
CCn1c(C)c(C)c2cc(C(=O)NCc3ccc(F)cc3)ccc21,AC50,[1],"39.8 µM [falling, single point]"
O=C(C1CCCN(S(=O)(=O)c2ccc(Br)s2)C1)N1CCN(c2ccccc2F)CC1 (configuration not stated),AC50,[1],"15.8 µM [falling, partial curve]"
Fc1ccc(Nc2ncnc3onc(-c4ccc(Cl)cc4)c23)cc1Cl,AC50,[1],"39.8 µM [falling, single point]"
COc1ccc(C)cc1NC(=O)NC(C)c1c(-n2cccc2)sc(C)c1C (configuration not stated),AC50,[1],"0.126 µM [falling, full curve, poor fit]"
CCOC(=O)c1c(C)[nH]c(CCC(=O)NC(C)c2ccccc2)c1C (configuration not stated),AC50,[1],"0.1 µM [falling, full curve, poor fit]"
CCN(CC)CCCNc1sc(S(=O)(=O)c2ccccc2)nc1S(=O)(=O)c1ccc(Cl)cc1,AC50,[1],"25.1 µM [falling, single point]"
COC(=O)C(NC(=O)CCc1c(C)nc2c(-c3ccccc3)c(C)nn2c1C)C(C)C (configuration not stated),AC50,[1],"15.8 µM [falling, partial curve]"
CCCC(=O)Nc1nnc(S(=O)(=O)N2CCCCCC2)s1,AC50,[1],"3.16 µM [rising, single point]"
CC(C)Cc1ccc(S(=O)(=O)N2CCN(Cc3noc(CCC(=O)N4CCCCC4)n3)CC2)cc1,AC50,[1],"20 µM [falling, single point]"
COc1ccc(C2C(C(=O)Nc3ccccc3)=C(C)Nc3nc(SCC(=O)c4ccc(C)cc4)nn32)cc1 (configuration not stated),AC50,[1],"6.31 µM [rising, single point]"
Cc1nc2cc(-c3cccc(F)c3)nn2c(C)c1CCC(=O)N1CCN(c2ccccn2)CC1,AC50,[1],"0.794 µM [falling, partial curve]"
CC1=C(c2ccc(F)cc2)S(=O)(=O)N=C1N1CCC(C(=O)NCCc2ccccc2C)CC1,AC50,[1],"100 nM [rising, full curve, poor fit] [measured here: IkB-luc green channel]"
CCC(C(=O)NC1CCCC1)N(Cc1ccco1)C(=O)Cn1nnc(-c2ccc(C)cc2)n1 (configuration not stated),AC50,[1],"158 nM [rising, full curve, poor fit] [measured here: IkB-luc green channel]"
Cc1ccc(CNC(=O)c2ccc(CSCc3cccc(C)c3)o2)cc1,AC50,[1],"25.1 µM [falling, single point]"
Cc1ccc(CCNS(=O)(=O)c2c(C)nc3sc(C)c(C)n3c2=O)cc1,AC50,[1],"39.8 µM [falling, single point]"
Cc1nc2ccn(Cc3cccs3)c(=O)c2cc1C(=O)N1CCN(c2ccccc2F)CC1,AC50,[1],"25.1 µM [falling, partial curve]"
O=C1C(=O)N(C2CCN(C(=O)c3ccccc3Cl)CC2)CCN1Cc1ccc(F)cc1,AC50,[1],"2.51 µM [falling, full curve, poor fit]"
CC1CCN(S(=O)(=O)c2ccc3c(c2)N(CC(=O)NCCc2ccccc2)C(=O)CO3)CC1,AC50,[1],"39.8 µM [falling, single point]"
COc1cccc(NC(=O)c2ccc3c(c2)CCN3S(C)(=O)=O)c1,AC50,[1],"20 µM [falling, partial curve]"
CCC(=O)N1CCc2cc(Br)cc(S(=O)(=O)N3CCN(c4ccccc4OC)CC3)c21,AC50,[1],"0.0316 µM [falling, full curve, poor fit]"
Cc1ccc(CNC(=O)c2nc(SCc3ccccc3C)ncc2Cl)cc1,AC50,[1],"10 µM [falling, partial curve, poor fit]"
COCCNc1oc(/C=C/c2ccc(F)cc2)nc1C#N,AC50,[1],"0.251 µM [rising, partial curve]"
COc1ccc(Nc2ncnc3c2cnn3-c2ccc(C)cc2)cc1Cl,AC50,[1],"3.98 µM [falling, full curve]"
CCC(=O)N1CCc2cc(Br)cc(S(=O)(=O)CCC(=O)NCc3cccc(OC)c3)c21,AC50,[1],"6.31 µM [falling, partial curve]"
CC1C(=O)N2CCCc3cc(S(=O)(=O)N4CCC(C(N)=O)CC4)cc1c32 (configuration not stated),AC50,measured here: IkB-luc green channel,"3.98 µM [rising, single point]"
same,AC50,measured here: control luc red channel,"6.31 µM [rising, single point]"
COc1ccccc1Nc1nn2c(=O)c3ccc(C(=O)NCCC4=CCCCC4)cc3nc2s1,AC50,[1],"31.6 µM [falling, partial curve]"
Cc1onc(-c2ccccc2)c1C(=O)OCC(=O)c1ccccc1,AC50,[1],"31.6 µM [falling, single point]"
COc1cccc(CNC(=O)c2cnc(N3CCCCC3)c3ccccc23)c1,AC50,[1],"39.8 µM [falling, single point]"
COc1ccc(-c2onc(C)c2C)cc1S(=O)(=O)NCC1CCN(Cc2cc(C)ccc2C)CC1,AC50,[1],"15.8 µM [falling, partial curve]"
COC(=O)c1ccccc1NC(=O)c1ccc2nc(CCc3ccccc3)oc2c1,AC50,[1],"7.94 µM [rising, partial curve, poor fit]"
O=C(CSCc1cnn(-c2ccccc2)c1-n1cccc1)NCc1cccs1,AC50,[1],"15.8 µM [falling, partial curve]"
COc1cccc(-c2noc(COc3ccccc3Cl)n2)c1,AC50,[1],"6.31 µM [rising, single point]"
c1ccc(C(Cc2nc(-c3ccccn3)no2)c2ccccc2)cc1,AC50,[1],"2 µM [falling, full curve]"
Cc1ccc(-n2c(=O)c3c(cnn3C)n(CC(=O)Nc3ccccc3C)c2=O)cc1,AC50,[1],"1.26 µM [falling, partial curve]"
COc1ccc2nc(C)cc(Nc3ccc(Cl)c(Cl)c3)c2c1,AC50,[1],"15.8 µM [falling, partial curve]"
O=C(Cn1c(=O)oc2cc(S(=O)(=O)N3CCCCC3)ccc21)NCc1ccc(Cl)cc1,AC50,[1],"15.8 µM [falling, partial curve]"
CCCCn1c(=NC(=O)c2cc3ccccc3o2)c(C(=O)OCC)cc2c(=O)n3ccccc3nc21,AC50,[1],"20 µM [falling, partial curve]"
CCCn1nc(NS(=O)(=O)c2ccccc2)c2cc3ccccc3nc21,AC50,[1],"12.6 µM [falling, partial curve]"
COc1ccc(S(=O)(=O)N2CCSC2c2ccc(OC)c(OC)c2)cc1 (configuration not stated),AC50,[1],"39.8 µM [falling, single point]"
CCOC(=O)c1ccccc1NC(=O)CSc1nc2c(c(=O)n(C)c(=O)n2C)n1C,AC50,[1],"39.8 µM [rising, single point] [measured here: IkB-luc green channel]"
CC1CCN(S(=O)(=O)c2nnc(NC(=O)c3cccc(Br)c3)s2)CC1,AC50,[1],"3.98 µM [rising, single point]"
Cc1ccc(NC(=O)Cn2c(=O)n(CCC(=O)NCc3ccccc3Cl)c(=O)c3ccccc32)cc1,AC50,[1],"0.0158 µM [rising, full curve, poor fit]"
O=c1c(-c2cccs2)nc2cnc(Nc3ccccc3)nc2n1C[C@H]1CCCO1,AC50,[1],"3.98 µM [falling, single point] [measured here: IkB-luc green channel]"
CN(c1ccc(OCc2nnc(-c3ccccc3)o2)cc1)S(=O)(=O)c1ccccc1,AC50,[1],"25.1 µM [falling, partial curve]"
COc1ccc(CCn2c(C)cc(C(=O)CSc3nnc(N)s3)c2C)cc1,AC50,[1],"25.1 µM [falling, partial curve]"
O=C(Nc1ccc(F)c(Cl)c1)C1CCCN(c2cnccn2)C1 (configuration not stated),AC50,[1],"39.8 µM [falling, single point]"
COc1ccc(CC2C(=O)Nc3ccc(Br)cc32)cc1OC (configuration not stated),AC50,[1],"2 µM [falling, partial curve]"
COc1ccc(S(=O)(=O)NCC(c2ccco2)N2CCN(c3ccc(F)cc3)CC2)cc1C (configuration not stated),AC50,[1],"12.6 µM [falling, partial curve]"
CC(=O)N1CCCC1c1nc2ccccc2n1Cc1ccccc1C (configuration not stated),AC50,[1],"7.94 µM [falling, full curve]"
CCc1ccc(NC(=O)CC2C(=O)N(c3cccc(C)c3)C(=O)N2Cc2ccco2)cc1 (configuration not stated),AC50,[1],"31.6 µM [falling, single point]"
COc1ccc(-c2cc(C(=O)N3CCc4ccccc4C3)no2)cc1OC,AC50,[1],"15.8 µM [falling, partial curve]"
c1ccc(-c2nc3nc4ccccc4nc3n2Cc2ccco2)cc1,AC50,[1],"20 µM [falling, partial curve]"
CC1CCN(S(=O)(=O)c2ccc3c(ccn3CCC(=O)NCc3ccc(N(C)C)cc3)c2)CC1,AC50,[1],"31.6 µM [falling, partial curve]"
COc1cccc2cc(C(=O)NCCc3c(C)[nH]c4ccc(F)cc34)c(=O)oc12,AC50,[1],"12.6 µM [falling, partial curve]"
O=C(Nc1cccc(Br)c1)c1cc2ccccc2o1,AC50,[1],"5.01 µM [falling, full curve]"
COc1ccc(S(=O)(=O)N(CC(=O)Nc2cccnc2)c2ccc(Cl)cc2)cc1,AC50,[1],"15.8 µM [falling, partial curve]"
Clc1cccc(-n2ncc3c(NCCCn4ccnc4)ncnc32)c1,AC50,[1],"15.8 µM [falling, partial curve]"
COc1ccc(NC(=O)Cn2c(=O)ccc3cc(S(=O)(=O)N4CCCC4)ccc32)cc1Cl,AC50,[1],"0.398 µM [falling, partial curve]"
Cc1cccn2c(=O)c(C(=O)NCCc3ccc(S(N)(=O)=O)cc3)c(O)nc12,AC50,[1],"3.98 µM [rising, partial curve, poor fit]"
O=C(CCOc1ccccc1)N(Cc1cccnc1)c1nc2c(F)cccc2s1,AC50,[1],"39.8 µM [falling, single point]"

# Rewritten with bars between the fields: entries from further up.
smiles | measurement | setting | value
Cc1onc(-c2ccccc2)c1C(=O)OCC(=O)c1ccccc1 | AC50 | [1] | 31.6 µM [falling, single point]
O=C(Nc1ccc(F)c(Cl)c1)C1CCCN(c2cnccn2)C1 (configuration not stated) | AC50 | [1] | 39.8 µM [falling, single point]
CC(=O)N1CCCC1c1nc2ccccc2n1Cc1ccccc1C (configuration not stated) | AC50 | [1] | 7.94 µM [falling, full curve]
O=C(Nc1cccc(Br)c1)c1cc2ccccc2o1 | AC50 | [1] | 5.01 µM [falling, full curve]
